This data set can be described thus: Organic semiconductor characteristics (FET) of device with solution-cast thin layer.
Where [1] appears, read: organic semiconductor device of Example A-3.

As to “Di-triisopropylsilylacetylene-substituted dinaphthothienothiophene [di-TIPS-substituted DNTT]”, under setting [1], the carrier mobility was 1×10^−3 cm^2/Vs, the on/off ratio is recorded as 10^5 and the threshold voltage is −26 V. The semiconductor behavior entry (organic semiconductor device of Example A-3, film cast from 0.2 wt % chloroform solution) is on record as “p-type semiconductor behavior”.

These data come from US8829202B2, “Condensed polycyclic aromatic compound, aromatic polymer, and method for synthesizing aromatic compound” (Teijin Limited, priority 2011, dated 2014).
